Some of these results come from one statement about several compounds together.
Test system: PC9 cells, derived from EGFR exon 19 deletion NSCLC
Experiment: Intracranial PC9 (secreted gaussia luciferase) xenograft in female NSG mice
Format: in vivo
Conditions: QD 5 days on/2 days off, as of treatment day 91
Method: Dosing schedule was QD for 5 days followed by 2 days off. Relative light unit (RLU) intensity from tumor secreted gaussia luciferase was measured as a surrogate of intracranial tumor growth. RLU and body weight were measured 2× weekly until mice were taken down due to body weight loss, health observations, and/or study termination.

Structure (SMILES): CN1CCN(C[C@H]2COc3cc4ncnc(Nc5cccc(Br)c5F)c4cc3O2)CC1 [Compound 1]
- extension of survival relative to vehicle (10 mpk): > 450%
- extension of survival relative to vehicle (25 mpk): > 450%

— patent US20260108524A1, “EGFR INHIBITORS FOR TREATING LUNG CANCER” (The Regents of the University of California, priority 2022, published 2026)
